PMC8398878 (Pharmaceutics, 2021)

Assay: general procedure: Fmoc solid-phase peptide synthesis; Rink amide-MBHA resin (loading: 0.83 mol/g) for PNA5; 2-Cl-trityl resin (loading: 1.43 mol/g) for Ang (1—7); HBTU/NMM in DMF; ClHOBt/DIC in NMP for Fmoc-Ser glucoside
Details: whole synthesis, 280 nm

| Substance | final HPLC purity |
| --- | --- |
| H-DRVYIHS(βGlc)-NH2 (SMILES CC[C@H](C)[C@H](NC(=O)[C@H](Cc1ccc(O)cc1)NC(=O)[C@@H](NC(=O)[C@H](CCCNC(=N)N)NC(=O)[C@@H](N)CC(=O)O)C(C)C)C(=O)N[C@@H](Cc1c[nH]cn1)C(=O)N[C@@H](CO[C@@H]1O[C@H](CO)[C@@H](O)[C@H](O)[C@H]1O)C(N)=O) | more than 98.5% |
| Asp-Arg-Val-Tyr-Ile-His-Pro | more than 98.5% |

* marks the point of attachment. βGlc = OC[C@H]1O[C@@H](*)[C@H](O)[C@@H](O)[C@@H]1O
